Assay results published in US8557776B2 (Bayer Pharma AG, priority 2006, dated 2013).

Assay: general procedure: Fmoc solid-phase peptide synthesis; Rink resin; diisopropylcarbodiimide / diisopropylethylamine; DCC, HOBt
Conditions: whole synthesis
[1] = scale 0.025 mmol, triflate salt
[2] = scale 0.065 mmol, triflate salt
[3] = on 0.065 mmol resin-bound peptide, scale 0.065 mmol, triflate salt

## 3-Cyano-4-(trimethylammonium)-benzoyl-Arg-Ava-Gln-Trp-Ala-Val-Gly-His(πMe)-Sta-Leu-NH2 trifluoracetic acid salt
Scale 0.025 mmol, TFA salt
  isolated mass: 10.8 mg
  isolated yield: 28%

## 3-Cyano-4-(trimethylammonium)-benzoyl-Arg-βAla-Gln-Trp-Ala-Val-Gly-His(3Me)-Sta-Leu-NH2 trifluoracetic acid salt
Scale 0.025 mmol, TFA salt
  isolated mass: 9.0 mg
  isolated yield: 24%

## 3-Cyano-4-(trimethylammonium)-benzoyl-Ava-Gln-Trp-Ala-Val-Gly-His(3Me)-Sta-Leu-NH2 trifluoracetic acid salt
Scale 0.025 mmol, TFA salt
  isolated mass: 11.1 mg
  isolated yield: 32%

## 3-Cyano-4-(trimethylammonium)-benzoyl-Ava-Gln-Trp-Ala-Val-Gly-His-(4-amino-5-methyl-heptanoic acid)-Leu-NH2 trifluoracetic acid salt
Scale 0.025 mmol, TFA salt
  isolated mass: 12.2 mg
  isolated yield: 35%

## 3-Trifluormethyl-4-(trimethylammonium)-benzoyl-Arg-Ava-Gln-Trp-Ala-Val-NMeGly-His(3Me)-Sta-Leu-NH2
[1]
  isolated mass: 11.5 mg
  isolated yield: 29%

## (2-Chloro-5-methanesulfonyl-4-trimethylammonium-benzoyl)-Val-βAla-Phe-Gly-NH2-triflate salt
[2]
  isolated mass: 23.2 mg
  isolated yield: 43%

## (2-Nitro-5-trimethylammonium-benzoyl)-Val-βAla-Phe-Gly-NH2-triflate salt
[2]
  isolated mass: 20.8 mg
  isolated yield: 42%

## (4-Trimethylammonium-2-bromo-benzoyl)-Gly-Phe-Ile-Gly-NH2-triflate salt
[2]
  isolated mass: 12.5 mg
  isolated yield: 24.6%

## (4-Trimethylammonium-2-chloro-5-fluoro-benzoyl)-Val-βAla-Phe-Gly-NH2-triflate salt
[3]
  isolated yield: 37%
[2]
  isolated mass: 18.6 mg

## (4-Trimethylammonium-2-chloro-benzoyl)-Trp-Ala-Val-Leu-NH2-triflate salt
[2]
  isolated mass: 16.2 mg
  isolated yield: 30.0%

## (4-Trimethylammonium-2-cyano-benzoyl)-Arg-Val-Gly-Phe-NH2-triflate salt
[2]
  isolated mass: 20.0 mg
  isolated yield: 38%

## (4-Trimethylammonium-2-fluoro-benzoyl)-Lys(N-dimethyl)-Ala-Gly-Leu-NH2-triflate salt
[2]
  isolated mass: 24.7 mg
  isolated yield: 45.0%

## (4-Trimethylammonium-2-nitro-benzoyl)-Ser-Thr-Val-Gly-NH2-triflate salt
[2]
  isolated mass: 16.3 mg
  isolated yield: 35%

## (4-Trimethylammonium-2.3-difluoro-benzoyl)-Val-Arg-Ser-Gly-NH2-triflate salt
[2]
  isolated mass: 19.6 mg
  isolated yield: 39.5%

## (4-Trimethylammonium-2.6-difluoro-benzoyl)-Gly-Pro-Phe-Val-NH2-triflate salt
[2]
  isolated mass: 9.75 mg
  isolated yield: 19.6%

## (4-Trimethylammonium-3-cyano-benzenesulfonyl)-Gly-Val-βAla-His(π-Me)-Gly-NH2-triflate salt
[2]
  isolated mass: 30.5 mg
  isolated yield: 55%

## (4-Trimethylammonium-3-cyano-benzoyl)-Arg-Ala-His(π-Me)-Leu-NH2-triflate salt
[2]
  isolated mass: 14.9 mg
  isolated yield: 27.0%

## (4-Trimethylammonium-3-cyano-benzoyl)-Ava-His(π-Me)-Sta-Leu-NH2-triflate salt
[3]
  isolated yield: 38%
[2]
  isolated mass: 21.6 mg

## (4-Trimethylammonium-3-cyano-benzoyl)-Gly-Tyr-βAla-Val-NH2
[3]
  isolated yield: 40%
[2]
  isolated mass: 19.8 mg

## (4-Trimethylammonium-3-cyano-benzoyl)-N-MeGly-His(π-Me)-Sta-Leu-NH2-triflate salt
[3]
  isolated yield: 29%
[2]
  isolated mass: 16.0 mg

## (4-Trimethylammonium-3-cyano-benzoyl)-Val-βAla-Arg-Gly-NH2-triflate salt
[3]
  isolated yield: 47%
[2]
  isolated mass: 20.3 mg

## (4-Trimethylammonium-3-cyano-benzoyl)-Val-βAla-His(Π-Me)-Gly-NH2 triflate salt
[3]
  isolated yield: 33%
[2]
  isolated mass: 16.0 mg

## (4-Trimethylammonium-3-cyano-benzoyl)-Val-βAla-His(π-Me)-Leu-NH2 triflate salt
[3]
  isolated yield: 57%
[2]
  isolated mass: 29.8 mg

## (4-Trimethylammonium-3-cyano-benzoyl)-Val-βAla-Lys-Gly-NH2-triflate salt
[3]
  isolated yield: 52%
[2]
  isolated mass: 24.5 mg

## (4-Trimethylammonium-3-cyano-benzoyl)-Val-βAla-Met-Gly-NH2-triflate salt
[3]
  isolated yield: 37%
[2]
  isolated mass: 17.4 mg

## (4-Trimethylammonium-3-cyano-benzoyl)-Val-βAla-Phe-Gly-NH2 triflate salt
[3]
  isolated yield: 46%
[2]
  isolated mass: 22.2 mg

## (4-Trimethylammonium-3-cyano-benzoyl)-Val-βAla-Trp-Gly-NH2-triflate salt
[3]
  isolated yield: 41%
[2]
  isolated mass: 20.8 mg

## (4-Trimethylammonium-3-cyano-benzoyl)-Val-βAla-Tyr-Gly-NH2 triflate salt
[3]
  isolated yield: 36%
[2]
  isolated mass: 17.7 mg

## (4-Trimethylammonium-3-fluoro-benzoyl)-Gly-Thr-Tyr-Ala-NH2-triflate salt
[2]
  isolated mass: 20.0 mg
  isolated yield: 41.6%

## (4-Trimethylammonium-3-methanesulfonyl-benzoyl)-Gly-Phe-Val-Leu-NH2-triflate salt
[2]
  isolated mass: 17.7 mg
  isolated yield: 33%

## (4-Trimethylammonium-3-nitro-benzoyl)-Thr-Val-Phe-Leu-NH2-triflate salt
[2]
  isolated mass: 30.1 mg
  isolated yield: 56%

## (4-Trimethylammonium-3-trifluormethyl-benzoyl)-Val-βAla-His(π-Me)-Gly-NH2-triflate salt
[3]
  isolated yield: 59%
[2]
  isolated mass: 24.2 mg

## (4-Trimethylammonium-3-trifluormethyl-benzoyl)-Val-βAla-Phe-Gly-NH2-triflate salt
[2]
  isolated mass: 10.9 mg
  isolated yield: 21.5%

## (4-Trimethylammonium-3-trifluoromethoxy-benzoyl)-Val-βAla-Phe-Gly-NH2-triflate salt
[2]
  isolated mass: 14.6 mg
  isolated yield: 28%

## (5-Trimethylammonium-2-bromo-benzoyl)-Val-βAla-Arg-Gly-NH2-triflate salt
[2]
  isolated mass: 27.2 mg
  isolated yield: 52%

## (5-Trimethylammonium-2-chloro-benzoyl)-Val-βAla-Arg-Gly-NH2-triflate salt
[2]
  isolated mass: 15.3 mg
  isolated yield: 31%

## (5-Trimethylammonium-2-cyano-benzoyl)-Val-βAla-Arg-Gly-NFI2-triflate salt
[3]
  isolated yield: 38%
[2]
  isolated mass: 18.6 mg

## (5-Trimethylammonium-2-methanesulfonyl-benzoyl)-Val-βAla-Arg-Gly-NH2-triflate salt
[2]
  isolated yield: 33%

## (5-Trimethylammonium-2-trifluormethyl-benzoyl)-Val-βAla-Trp-Gly-NH2-triflate salt
[2]
  isolated mass: 13.9 mg
  isolated yield: 26%
